Test results from the supplement of paper PMC10849652.
The list shows a part of the results.

By UniProt entry, the sequences of proteins in these tests, tags left out. Where a name states a change or a piece, a line headed by the entry shows the natural chain unless it says otherwise.
UniProt O95487: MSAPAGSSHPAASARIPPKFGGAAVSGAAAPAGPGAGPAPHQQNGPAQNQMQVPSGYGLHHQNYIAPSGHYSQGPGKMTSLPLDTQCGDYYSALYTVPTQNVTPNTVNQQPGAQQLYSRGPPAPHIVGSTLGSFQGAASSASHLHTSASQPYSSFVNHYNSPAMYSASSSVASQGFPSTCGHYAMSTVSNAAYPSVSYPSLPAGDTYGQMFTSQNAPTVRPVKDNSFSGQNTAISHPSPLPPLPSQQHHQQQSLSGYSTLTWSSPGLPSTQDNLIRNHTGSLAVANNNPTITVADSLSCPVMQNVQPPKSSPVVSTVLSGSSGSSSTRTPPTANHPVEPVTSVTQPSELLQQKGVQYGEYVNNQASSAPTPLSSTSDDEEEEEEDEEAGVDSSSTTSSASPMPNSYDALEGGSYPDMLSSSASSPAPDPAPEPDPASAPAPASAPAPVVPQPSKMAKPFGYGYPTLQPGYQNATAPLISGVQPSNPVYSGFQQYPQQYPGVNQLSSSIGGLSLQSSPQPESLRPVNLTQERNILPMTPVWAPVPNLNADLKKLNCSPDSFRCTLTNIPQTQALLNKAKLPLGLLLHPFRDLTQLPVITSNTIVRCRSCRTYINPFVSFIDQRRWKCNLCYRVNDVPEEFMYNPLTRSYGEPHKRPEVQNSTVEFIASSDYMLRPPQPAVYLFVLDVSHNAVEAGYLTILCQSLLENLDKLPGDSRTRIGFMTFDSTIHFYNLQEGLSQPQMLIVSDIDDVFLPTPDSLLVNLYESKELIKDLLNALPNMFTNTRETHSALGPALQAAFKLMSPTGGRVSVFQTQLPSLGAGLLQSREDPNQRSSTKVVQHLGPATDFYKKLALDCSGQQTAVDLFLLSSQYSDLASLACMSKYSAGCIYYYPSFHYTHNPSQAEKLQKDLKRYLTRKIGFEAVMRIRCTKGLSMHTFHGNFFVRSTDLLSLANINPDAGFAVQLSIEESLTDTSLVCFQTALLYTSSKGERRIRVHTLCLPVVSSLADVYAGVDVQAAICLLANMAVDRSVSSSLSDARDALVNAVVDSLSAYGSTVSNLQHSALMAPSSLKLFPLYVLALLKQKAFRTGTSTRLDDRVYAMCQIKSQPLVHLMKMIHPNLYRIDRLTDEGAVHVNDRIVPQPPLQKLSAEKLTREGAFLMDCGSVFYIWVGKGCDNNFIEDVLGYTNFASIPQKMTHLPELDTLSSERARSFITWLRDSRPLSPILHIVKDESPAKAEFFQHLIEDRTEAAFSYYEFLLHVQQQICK
UniProt Q86SQ7: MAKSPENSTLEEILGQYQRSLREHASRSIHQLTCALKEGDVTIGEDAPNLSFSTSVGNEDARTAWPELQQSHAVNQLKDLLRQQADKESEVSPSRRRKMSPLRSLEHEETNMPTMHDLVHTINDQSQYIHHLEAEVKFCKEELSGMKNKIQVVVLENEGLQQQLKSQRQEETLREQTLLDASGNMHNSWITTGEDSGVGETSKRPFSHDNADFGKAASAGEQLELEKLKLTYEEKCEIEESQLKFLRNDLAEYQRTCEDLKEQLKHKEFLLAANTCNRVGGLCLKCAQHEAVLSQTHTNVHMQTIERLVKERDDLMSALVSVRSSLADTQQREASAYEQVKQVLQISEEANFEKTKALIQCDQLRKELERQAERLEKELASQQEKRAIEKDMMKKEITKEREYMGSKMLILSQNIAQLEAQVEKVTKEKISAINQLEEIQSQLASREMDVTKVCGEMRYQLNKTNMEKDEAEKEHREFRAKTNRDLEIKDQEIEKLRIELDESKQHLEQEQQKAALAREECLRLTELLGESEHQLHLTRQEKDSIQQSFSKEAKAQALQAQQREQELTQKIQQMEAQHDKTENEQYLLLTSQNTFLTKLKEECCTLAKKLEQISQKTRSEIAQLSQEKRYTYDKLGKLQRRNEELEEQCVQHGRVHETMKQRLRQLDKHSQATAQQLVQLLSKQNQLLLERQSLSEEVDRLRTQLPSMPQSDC
UniProt Q6UVJ0: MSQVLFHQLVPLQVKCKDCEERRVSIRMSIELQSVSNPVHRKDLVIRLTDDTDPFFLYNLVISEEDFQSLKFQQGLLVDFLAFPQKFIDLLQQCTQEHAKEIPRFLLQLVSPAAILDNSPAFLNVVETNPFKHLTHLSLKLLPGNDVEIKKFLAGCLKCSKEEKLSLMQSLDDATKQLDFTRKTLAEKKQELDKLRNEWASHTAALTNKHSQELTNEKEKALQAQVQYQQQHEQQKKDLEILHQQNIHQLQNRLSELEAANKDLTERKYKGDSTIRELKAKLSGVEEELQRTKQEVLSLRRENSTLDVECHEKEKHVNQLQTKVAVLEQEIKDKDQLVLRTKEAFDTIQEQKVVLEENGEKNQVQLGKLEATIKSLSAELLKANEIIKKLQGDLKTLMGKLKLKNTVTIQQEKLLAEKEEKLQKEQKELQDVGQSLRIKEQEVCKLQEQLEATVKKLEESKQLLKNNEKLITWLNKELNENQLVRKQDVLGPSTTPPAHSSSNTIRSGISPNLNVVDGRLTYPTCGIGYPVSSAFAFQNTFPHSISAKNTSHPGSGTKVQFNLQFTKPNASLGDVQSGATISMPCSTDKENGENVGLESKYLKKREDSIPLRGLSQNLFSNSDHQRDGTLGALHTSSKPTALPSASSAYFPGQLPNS
UniProt Q9UPU9: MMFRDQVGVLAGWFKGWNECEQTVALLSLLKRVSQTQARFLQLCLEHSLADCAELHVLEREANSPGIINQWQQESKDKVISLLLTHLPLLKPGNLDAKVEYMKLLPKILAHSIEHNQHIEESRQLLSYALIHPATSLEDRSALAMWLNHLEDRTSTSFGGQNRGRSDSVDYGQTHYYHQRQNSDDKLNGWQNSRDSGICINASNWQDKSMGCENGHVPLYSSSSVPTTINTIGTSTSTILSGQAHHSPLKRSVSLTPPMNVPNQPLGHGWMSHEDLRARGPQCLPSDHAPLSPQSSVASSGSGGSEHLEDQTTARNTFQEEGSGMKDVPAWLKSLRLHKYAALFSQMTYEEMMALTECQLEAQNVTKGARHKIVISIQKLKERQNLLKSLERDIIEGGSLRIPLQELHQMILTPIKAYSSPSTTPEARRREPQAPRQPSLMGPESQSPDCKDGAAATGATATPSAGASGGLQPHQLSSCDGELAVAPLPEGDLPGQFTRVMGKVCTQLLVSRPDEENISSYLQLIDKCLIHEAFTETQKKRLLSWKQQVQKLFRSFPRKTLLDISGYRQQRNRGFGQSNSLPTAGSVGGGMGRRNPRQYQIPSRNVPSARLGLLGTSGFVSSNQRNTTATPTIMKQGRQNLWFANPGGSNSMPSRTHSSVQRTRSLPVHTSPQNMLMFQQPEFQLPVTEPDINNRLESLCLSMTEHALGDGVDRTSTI
UniProt O75056, whole entry, looked up: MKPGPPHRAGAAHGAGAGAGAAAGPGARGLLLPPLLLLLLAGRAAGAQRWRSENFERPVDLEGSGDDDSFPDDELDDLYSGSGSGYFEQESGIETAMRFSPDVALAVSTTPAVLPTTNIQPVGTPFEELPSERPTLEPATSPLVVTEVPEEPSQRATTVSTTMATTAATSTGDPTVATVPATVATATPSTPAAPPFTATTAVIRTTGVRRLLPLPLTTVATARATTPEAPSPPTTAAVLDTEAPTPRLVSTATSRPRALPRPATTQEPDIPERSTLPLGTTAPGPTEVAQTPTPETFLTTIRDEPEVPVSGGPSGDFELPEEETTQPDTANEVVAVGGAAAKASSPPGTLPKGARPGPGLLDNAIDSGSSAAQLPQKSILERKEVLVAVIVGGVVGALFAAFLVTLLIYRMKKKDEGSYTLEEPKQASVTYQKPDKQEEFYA
UniProt Q92503: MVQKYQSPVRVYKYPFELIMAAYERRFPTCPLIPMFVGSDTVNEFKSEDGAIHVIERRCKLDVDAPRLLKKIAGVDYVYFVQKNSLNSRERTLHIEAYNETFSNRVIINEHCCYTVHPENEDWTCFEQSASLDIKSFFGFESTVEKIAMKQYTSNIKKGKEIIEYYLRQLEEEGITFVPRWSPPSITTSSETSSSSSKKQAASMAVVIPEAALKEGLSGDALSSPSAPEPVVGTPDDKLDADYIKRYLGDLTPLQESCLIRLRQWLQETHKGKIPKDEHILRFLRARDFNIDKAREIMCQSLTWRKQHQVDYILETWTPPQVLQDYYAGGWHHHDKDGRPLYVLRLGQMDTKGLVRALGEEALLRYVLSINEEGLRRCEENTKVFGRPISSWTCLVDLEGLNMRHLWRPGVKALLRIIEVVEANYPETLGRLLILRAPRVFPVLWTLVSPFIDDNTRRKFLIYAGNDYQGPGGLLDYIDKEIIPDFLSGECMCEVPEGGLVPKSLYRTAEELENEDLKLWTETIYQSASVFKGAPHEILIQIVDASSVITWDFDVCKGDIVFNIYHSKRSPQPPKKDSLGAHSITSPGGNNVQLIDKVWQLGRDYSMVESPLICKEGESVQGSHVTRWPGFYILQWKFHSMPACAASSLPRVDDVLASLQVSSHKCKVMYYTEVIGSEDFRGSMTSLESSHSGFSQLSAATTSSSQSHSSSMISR
UniProt P48443: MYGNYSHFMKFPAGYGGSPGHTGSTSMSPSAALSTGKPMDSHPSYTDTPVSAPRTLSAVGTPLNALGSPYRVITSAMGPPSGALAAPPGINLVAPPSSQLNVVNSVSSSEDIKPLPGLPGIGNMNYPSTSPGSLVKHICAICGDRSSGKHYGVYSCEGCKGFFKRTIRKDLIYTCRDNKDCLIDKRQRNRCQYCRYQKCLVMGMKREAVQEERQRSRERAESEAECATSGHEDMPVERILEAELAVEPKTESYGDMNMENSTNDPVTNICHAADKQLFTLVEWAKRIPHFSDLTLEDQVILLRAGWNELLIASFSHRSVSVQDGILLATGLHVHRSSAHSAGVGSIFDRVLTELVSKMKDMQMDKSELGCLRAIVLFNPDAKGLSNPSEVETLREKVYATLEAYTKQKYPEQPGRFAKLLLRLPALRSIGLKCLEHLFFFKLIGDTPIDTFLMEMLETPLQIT
UniProt P28702: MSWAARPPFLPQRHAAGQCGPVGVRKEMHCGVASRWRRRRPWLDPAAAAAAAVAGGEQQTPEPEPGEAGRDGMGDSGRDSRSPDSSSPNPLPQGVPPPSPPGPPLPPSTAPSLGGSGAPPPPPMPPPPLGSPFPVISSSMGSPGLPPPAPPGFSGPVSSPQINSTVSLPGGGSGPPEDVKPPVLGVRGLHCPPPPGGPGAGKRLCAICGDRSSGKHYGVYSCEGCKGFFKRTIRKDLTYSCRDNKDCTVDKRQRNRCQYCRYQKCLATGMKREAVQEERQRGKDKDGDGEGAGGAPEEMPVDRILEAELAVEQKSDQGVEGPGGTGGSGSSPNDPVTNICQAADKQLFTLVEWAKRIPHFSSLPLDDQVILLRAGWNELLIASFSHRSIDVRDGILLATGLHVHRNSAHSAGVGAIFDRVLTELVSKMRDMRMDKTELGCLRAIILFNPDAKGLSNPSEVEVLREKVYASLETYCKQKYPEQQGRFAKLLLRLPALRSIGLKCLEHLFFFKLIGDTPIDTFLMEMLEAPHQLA
UniProt P23297: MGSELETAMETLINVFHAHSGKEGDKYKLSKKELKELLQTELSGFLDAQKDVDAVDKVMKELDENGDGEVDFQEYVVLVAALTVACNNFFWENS
UniProt Q99470: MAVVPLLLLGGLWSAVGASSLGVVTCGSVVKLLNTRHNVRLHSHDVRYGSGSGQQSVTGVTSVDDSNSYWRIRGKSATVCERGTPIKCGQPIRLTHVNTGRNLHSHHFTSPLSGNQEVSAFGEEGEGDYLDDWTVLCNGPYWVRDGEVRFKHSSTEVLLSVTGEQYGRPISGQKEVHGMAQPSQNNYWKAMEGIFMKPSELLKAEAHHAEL
UniProt Q96BY9: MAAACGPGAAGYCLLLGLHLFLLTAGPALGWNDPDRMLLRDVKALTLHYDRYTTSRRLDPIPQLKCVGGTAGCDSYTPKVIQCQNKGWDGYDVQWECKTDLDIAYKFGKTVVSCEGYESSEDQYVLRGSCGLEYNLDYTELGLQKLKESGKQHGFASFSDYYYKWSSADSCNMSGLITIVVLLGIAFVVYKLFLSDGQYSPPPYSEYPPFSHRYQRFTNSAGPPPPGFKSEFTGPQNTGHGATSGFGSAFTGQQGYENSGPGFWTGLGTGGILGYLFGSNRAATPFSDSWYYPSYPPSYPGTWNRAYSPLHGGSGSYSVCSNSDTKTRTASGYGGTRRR
UniProt Q7L3V2: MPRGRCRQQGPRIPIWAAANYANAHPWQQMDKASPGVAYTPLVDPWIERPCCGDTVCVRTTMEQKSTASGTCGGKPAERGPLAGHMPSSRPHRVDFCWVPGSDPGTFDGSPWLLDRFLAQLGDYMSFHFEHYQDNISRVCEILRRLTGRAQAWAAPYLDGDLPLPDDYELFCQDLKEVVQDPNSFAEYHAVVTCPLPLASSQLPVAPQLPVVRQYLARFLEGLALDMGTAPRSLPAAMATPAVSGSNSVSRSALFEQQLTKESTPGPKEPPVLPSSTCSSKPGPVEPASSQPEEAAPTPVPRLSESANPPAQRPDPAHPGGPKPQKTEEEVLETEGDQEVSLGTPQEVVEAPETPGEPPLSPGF

Tests used:
Test in all cases: log2 fold change, soluble protein after heating vs DMSO (PISA); higher = thermal stabilisation; K562 cells, 10 uM, 30 min; active = over 0.2 and 3.5 SD of the protein, either way, in both replicates (recomputed)
epoxomicin = compound: CC[C@H](C)[C@@H](C(=O)N[C@@H]([C@@H](C)O)C(=O)N[C@@H](CC(C)C)C(=O)[C@]1(CO1)C)NC(=O)[C@H]([C@@H](C)CC)N(C)C(=O)C [epoxomicin]
Procedure, shortened: (§1)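 Aliquots of K562 cells (2×10^6 cells/mL) treated with 10 μM compound for 30 min were heated for 3 min over 48°C-58°C. After pooling and extraction in PBS with 0.5% NP-40 at 4°C, soluble protein from a 21,000xg, 90 min spin was quantified by TMTpro 16plex LC-MS/MS with channel sums equalised. Thermal stability is expressed against control samples, from duplicates, as a log2 fold change.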

volasertib = compound: CC[C@@H]1C(=O)N(C)c2cnc(Nc3ccc(C(=O)N[C@H]4CC[C@H](N5CCN(CC6CC6)CC5)CC4)cc3OC)nc2N1C(C)C [volasertib]
Procedure, shortened: as §1

[1] = compound: CCn1c(C(=O)N(C2CC2)C2CC2)cc2c3c(ncn3C)c(Nc3cc(C)n(C)n3)nc21
Procedure, shortened: as §1

[2] = compound: CCn1cc(-c2ccnc3[nH]c(-c4cccc(CN(C)C)c4)cc23)c(-c2ccc(NC(=O)N(C)C)cc2)n1
Procedure, shortened: as §1

rosiglitazone = compound: CN(CCOC1=CC=C(C=C1)C[C@H]2C(=O)NC(=O)S2)C3=CC=CC=N3 (racemic) [rosiglitazone]
Procedure, shortened: as §1

[3] = compound: CN1C2=C(C3=C1C(=O)N(N=C3)CC4=CC(=CC=C4)N)SC(=C2)S(=O)C
Procedure, shortened: as §1

[4] = compound: CN1CCC(CNc2ccc3ncc(-c4cccc(OC(F)(F)F)c4)n3n2)CC1
Procedure, shortened: as §1

[5] = compound: CC[C@@H]1C(=O)N(C)c2cnc(Nc3ccc(C(=O)NC4CCN(C)CC4)cc3OC)nc2N1C1CCCC1
Procedure, shortened: as §1

[6] = compound: CN(C)CC(=O)Nc1ccc2[nH]c(=O)c3ccccc3c2c1
Procedure, shortened: as §1

[7] = compound: CC[C@H](C)N1C=C(C2=C(C=C(C=C21)C3=CN=C(C=C3)N4CCNCC4)C(=O)NCC5=C(C=C(NC5=O)C)C)C
Procedure, shortened: as §1

Measured: log2 fold change

RTN4, A0A0U1RQR6
inactive: epoxomicin 0.088

SEC22A (UniProt Q96IW7)
inactive: volasertib -0.046 | [1] -0.059 | [2] -0.018 | rosiglitazone -0.103 | [3] -0.118 | [4] 0.077

SEC24B isoform 3 (UniProt O95487)
inactive: [5] -0.15 | volasertib -0.179 | epoxomicin 0.089 | [2] 0.045 | [6] 0.057 | rosiglitazone -0.046 | [3] 0.047 | [4] -0.01

SDCCAG8 (UniProt Q86SQ7)
inactive: [5] -0.034 | volasertib -0.023 | [1] -0.111 | [2] -0.247 | [6] 0.095 | [3] 0.07 | [4] 0.086

SAP130 isoform 3 (UniProt Q9H0E3)
inactive: [2] 0.022 | [6] 0.104 | [4] 0.119

RTN4 isoform 2 (UniProt Q9NQC3)
inactive: volasertib 0.033 | epoxomicin -0.117 | [1] 0.22 | [2] -0.249 | [6] -0.004 | rosiglitazone 0.003 | [3] -0.077 | [4] 0.265

RUBCN (UniProt Q92622)
inactive: [6] -0.154

SAFB2 (UniProt K7EQU4)
inactive: [7] -0.095 | epoxomicin -0.11

SASS6 (UniProt Q6UVJ0)
inactive: volasertib -0.162 | [7] 0.252 | epoxomicin -0.001 | [1] -0.194 | [2] -0.027 | [6] -0.143 | rosiglitazone 0.193 | [3] 0.128 | [4] -0.021

SAMD4A (UniProt Q9UPU9)
inactive: epoxomicin -0.23 | [1] -0.019 | [3] 0.04

SDC3 (UniProt O75056)
inactive: [5] 0.223 | [7] 0.067 | epoxomicin 0.005 | [2] -0.401 | [6] 0.006 | [3] -0.017 | [4] 0.632

SCN4A (UniProt P35499)
inactive: [3] 0.104

RRP1B (UniProt Q14684)
inactive: [5] -0.194 | epoxomicin -0.097 | [1] -0.048 | [2] 0.142 | [6] -0.043 | [3] 0.083 | [4] -0.054

SCO2 (UniProt O43819)
inactive: [5] -0.109 | volasertib -0.346 | epoxomicin -0.055 | [2] -0.051 | [6] 0.039 | [3] -0.014 | [4] -0.187

SEC14L1 isoform 2 (UniProt Q92503)
inactive: [5] 0.056 | epoxomicin -0.072 | [1] -0.053 | [2] -0.002 | [6] 0.132 | [3] -0.012 | [4] -0.362

SCGB2A1 (UniProt O75556)
inactive: [7] 1.35 | rosiglitazone -0.001

SDAD1 (UniProt Q9NVU7)
inactive: [5] 0.04 | [7] -0.065 | epoxomicin -0.107 | [2] 0.188 | rosiglitazone 0.01 | [3] 0.179 | [4] -0.124

S100A16 (UniProt Q96FQ6)
inactive: [5] 0.047 | [7] 0.394 | epoxomicin 0.104 | [1] -0.004 | [6] -0.067 | rosiglitazone 0.017 | [3] 0.314

SCLT1 (UniProt Q96NL6)
inactive: [7] -0.066 | [2] -0.116 | [6] -0.013 | [3] -0.089 | [4] -0.029

SCAI isoform 2 (UniProt Q8N9R8)
inactive: epoxomicin 0.201 | [1] -0.041 | [6] 0.181 | [3] 0.067

SATB2 (UniProt Q9UPW6)
inactive: [2] -0.354 | [4] -0.557

RXRG (UniProt P48443)
inactive: [2] -0.03 | [4] -0.101

RTL8C (UniProt A6ZKI3)
inactive: [5] -0.066 | volasertib -0.072 | epoxomicin 0.265 | [2] 0.082 | [6] 0.011 | [3] -0.105 | [4] 0.024

SAYSD1 (UniProt Q9NPB0)
inactive: [5] 0.027 | volasertib -0.047 | epoxomicin 0.056 | [1] 0.105 | rosiglitazone 0.089

RSL24D1 (UniProt Q9UHA3)
inactive: [5] 0.253 | [7] -0.079 | epoxomicin -0.494 | [1] -0.181 | [6] -0.258 | rosiglitazone -0.117

SAE1 (UniProt M0R286)
inactive: volasertib -0.028 | epoxomicin -0.225 | [1] 0.11 | [6] 0.082 | rosiglitazone 0.078

RXYLT1 (UniProt Q9Y2B1)
inactive: volasertib 0.094 | [7] -0.117 | [1] 0.094

RXRB isoform 3 (UniProt P28702)
inactive: epoxomicin 0.508 | rosiglitazone 0.079

Two consecutive entries already listed, quoted:
RSL24D1 (UniProt Q9UHA3)
inactive: [5] 0.253 | [7] -0.079 | epoxomicin -0.494 | [1] -0.181 | [6] -0.258 | rosiglitazone -0.117

SAE1 (UniProt M0R286)
inactive: volasertib -0.028 | epoxomicin -0.225 | [1] 0.11 | [6] 0.082 | rosiglitazone 0.078

Going on with the list:

SBF2 (UniProt Q86WG5)
inactive: epoxomicin 0.072 | [2] -0.059 | [3] -0.091 | [4] -0.385

S100A1 (UniProt P23297)
inactive: [7] -0.085 | epoxomicin 0.104 | [1] 0.145 | rosiglitazone 0.061

SDF2 (UniProt Q99470)
inactive: volasertib -0.132 | epoxomicin 0.124 | [1] 0.098 | [2] 0.011 | rosiglitazone 0.059 | [4] 0.003

SARAF (UniProt Q96BY9)
inactive: [5] 0.145 | volasertib 0.155 | epoxomicin 0.089 | [2] -0.066 | [6] 0.049 | rosiglitazone -0.021 | [3] 0.032 | [4] -0.147

RWDD2B (UniProt P57060)
inactive: [5] -0.006 | volasertib -0.118 | [1] -0.061 | [2] 0.069 | [6] -0.213 | [3] 0.004 | [4] -0.73

SAMD4B (UniProt Q5PRF9)
inactive: volasertib 0.078 | [7] -0.047 | epoxomicin 0.02 | [2] 0.023 | [3] 0.089 | [4] -0.308

SAP30 (UniProt O75446)
inactive: volasertib 0.042 | [7] -0.039 | epoxomicin -0.109 | [2] -0.051 | [6] 0.013 | [3] 0.175 | [4] 0.064

SCRIB isoform 3 (UniProt Q14160)
inactive: [1] -0.217 | [2] -0.03 | [3] 0.124 | [4] 0.234

SDHB, A0A087WXX8
inactive: volasertib -0.026 | [7] -0.026 | [1] -0.109 | [2] 0.1 | [6] 0.076 | rosiglitazone 0.094 | [3] -0.055 | [4] -0.041

S100A14 (UniProt Q9HCY8)
inactive: [5] 0.305 | [7] 0.158 | [1] -0.356 | [6] 0.178 | rosiglitazone 0.046 | [3] 0.816

RTL10 (UniProt Q7L3V2)
inactive: volasertib -0.27 | epoxomicin 0.258 | [2] -0.026 | [6] -0.286 | [3] -0.013 | [4] 0.01

SBSN (UniProt Q6UWP8)
inactive: [5] 0.703 | [7] 0.058
